PubChem BioAssay AID1224828, NIAID | 2016

Test: 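Regulators linking TLR4 signalling to p65 nuclear translocation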 (primary screen)
System: mouse RAW264.7 G9 macrophage reporter cells (GFP-p65, Tnf promoter-mCherry)
Reagents: siRNA pool against mouse genes, 100 nM
Time to read-out: 2 days siRNA transfection, then 40 min LPS before fixation
Treatment: LPS (Salmonella minnesota R595) at 10 ng/ml
Measurement: 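Microscopy ratio of nuclear to perinuclear-ring GFP-p65 signal, scaled to the plate median; gene score is the average of two replicate robust z-scores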
Reading the numbers: p65 translocation robust z-score: higher = more nuclear NF-kappaB p65 after LPS than the plate median; nuclear/cytoplasmic p65 ratio: higher = more nuclear NF-kappaB p65
Rule for the call: 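Called active when z exceeds 3.3 or falls under -1.56 (median of Tlr4 controls), giving activity score of at least 50; no calls for control wells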
Calls: active = hit (p65 shift raised or lowered); inactive = no clear change
The whole screen tested about 17,000 reagents; below is an unselected part. Of all reagents, 762 (4.5%) got an active call. 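Active calls include both raised and lowered p65 entry, mostly lowered; wells with fewer than 50 cells lack a z-score.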 Raw values are not corrected between plates. Reagents against one gene are numbered here.

Silencing of Mapk1 gave: p65 translocation robust z-score 0.57; nuclear/cytoplasmic p65 ratio, rep 1 = 1.81; nuclear/cytoplasmic p65 ratio, rep 2 = 1.42; low cell count flag enough cells to score; inactive. Silencing of Klhl31 #1 resulted in: p65 translocation robust z-score 0.43; nuclear/cytoplasmic p65 ratio, rep 1 = 1.61; nuclear/cytoplasmic p65 ratio, rep 2 = 1.63; low cell count flag enough cells to score; inactive. Knock-down of Klhl31 #2 resulted in: p65 translocation robust z-score -0.68; nuclear/cytoplasmic p65 ratio, rep 1 = 1.37; nuclear/cytoplasmic p65 ratio, rep 2 = 1.41; low cell count flag enough cells to score; inactive. With knock-down of Klk1b1, the screen gave p65 translocation robust z-score 1.66; nuclear/cytoplasmic p65 ratio, rep 1 = 1.77; nuclear/cytoplasmic p65 ratio, rep 2 = 1.67; low cell count flag enough cells to score; inactive. Spag9 scored p65 translocation robust z-score -1.22; nuclear/cytoplasmic p65 ratio, rep 1 = 1.32; nuclear/cytoplasmic p65 ratio, rep 2 = 1.43; low cell count flag enough cells to score; inactive. Depletion of Mmp10 came out at: p65 translocation robust z-score 0.33; nuclear/cytoplasmic p65 ratio, rep 1 = 1.42; nuclear/cytoplasmic p65 ratio, rep 2 = 1.44; low cell count flag enough cells to score; inactive.

Silencing of Kcna6 gave: p65 translocation robust z-score 0.16; nuclear/cytoplasmic p65 ratio, rep 1 = 1.5; nuclear/cytoplasmic p65 ratio, rep 2 = 1.39; low cell count flag enough cells to score; inactive. For Mmd the deposit lists p65 translocation robust z-score 1.4; nuclear/cytoplasmic p65 ratio, rep 1 = 2.06; nuclear/cytoplasmic p65 ratio, rep 2 = 1.76; low cell count flag enough cells to score; inactive. Against Tspan18, the entry reads nuclear/cytoplasmic p65 ratio, rep 1 = 1.55; nuclear/cytoplasmic p65 ratio, rep 2 = 1.45; low cell count flag fewer than 50 cells per well; well left out of scoring; inactive. For Cdkn1a, the values are p65 translocation robust z-score -1.73; nuclear/cytoplasmic p65 ratio, rep 1 = 1.36; nuclear/cytoplasmic p65 ratio, rep 2 = 1.2; low cell count flag enough cells to score; active. For Cdc37, the values are p65 translocation robust z-score 1.28; nuclear/cytoplasmic p65 ratio, rep 1 = 1.72; nuclear/cytoplasmic p65 ratio, rep 2 = 1.47; low cell count flag enough cells to score; inactive. With knock-down of Fap, the record shows p65 translocation robust z-score -0.6; nuclear/cytoplasmic p65 ratio, rep 1 = 1.39; nuclear/cytoplasmic p65 ratio, rep 2 = 1.49; low cell count flag enough cells to score; inactive.

Already shown: an excerpt of the list.
Mmp10 → p65 translocation robust z-score: 0.33; nuclear/cytoplasmic p65 ratio, rep 1: 1.42; nuclear/cytoplasmic p65 ratio, rep 2: 1.44; low cell count flag: enough cells to score; Outcome: inactive
Kcna6 → p65 translocation robust z-score: 0.16; nuclear/cytoplasmic p65 ratio, rep 1: 1.5; nuclear/cytoplasmic p65 ratio, rep 2: 1.39; low cell count flag: enough cells to score; Outcome: inactive

The list goes on:
Zfp108 scored nuclear/cytoplasmic p65 ratio, rep 1 = 1.17; nuclear/cytoplasmic p65 ratio, rep 2 = 1.17; low cell count flag fewer than 50 cells per well; well left out of scoring; inactive. Clec2m scored p65 translocation robust z-score 0.38; nuclear/cytoplasmic p65 ratio, rep 1 = 1.07; nuclear/cytoplasmic p65 ratio, rep 2 = 1.35; low cell count flag enough cells to score; inactive. Knock-down of Chkb resulted in: p65 translocation robust z-score -0.8; nuclear/cytoplasmic p65 ratio, rep 1 = 1.58; nuclear/cytoplasmic p65 ratio, rep 2 = 1.27; low cell count flag enough cells to score; inactive. For Stap2, the entry reads nuclear/cytoplasmic p65 ratio, rep 1 = 1.46; nuclear/cytoplasmic p65 ratio, rep 2 = 1.5; low cell count flag fewer than 50 cells per well; well left out of scoring; inactive. After knock-down of Casp4 the results were p65 translocation robust z-score -1.05; nuclear/cytoplasmic p65 ratio, rep 1 = 1.39; nuclear/cytoplasmic p65 ratio, rep 2 = 1.52; low cell count flag enough cells to score; inactive. Silencing of Muc20 resulted in: p65 translocation robust z-score 0.86; nuclear/cytoplasmic p65 ratio, rep 1 = 1.86; nuclear/cytoplasmic p65 ratio, rep 2 = 1.77; low cell count flag enough cells to score; inactive.

Knock-down of Hsd17b6 came out at: nuclear/cytoplasmic p65 ratio, rep 1 = 1.47; nuclear/cytoplasmic p65 ratio, rep 2 = 1.36; low cell count flag fewer than 50 cells per well; well left out of scoring; inactive. Lypd6b scored p65 translocation robust z-score -2.26; nuclear/cytoplasmic p65 ratio, rep 1 = 1.07; nuclear/cytoplasmic p65 ratio, rep 2 = 1.07; low cell count flag enough cells to score; active. Peg3 showed nuclear/cytoplasmic p65 ratio, rep 1 = 1.34; nuclear/cytoplasmic p65 ratio, rep 2 = 1.26; low cell count flag fewer than 50 cells per well; well left out of scoring; inactive.
